Reference: the supplement of paper PMC7238544
Structures can show the parent of a compound that is named as a salt. ± gives the standard deviation of the averaged measurements. The list shows a part of the results. The data scatter; read single values as rough.

Each molecule was assayed on hAMSC donor 1 (assay: Hoechst total cell count ratio vs vehicle control; hAMSC are human adipose-derived mesenchymal stem cells given an EGFP-luciferase plasmid by lipofection; higher = more cells (less toxicity)). Details: priming compound concentration 0.2 µM.

SMILES	Hoechst total cell count ratio
Clc1ccc(CO/N=C(\Cn2ccnc2)c2ccc(Cl)cc2Cl)c(Cl)c1 [Oxiconazole nitrate]	1.19 ± 0.17
CN1CCN(CCCN2c3ccccc3Sc3ccc(Cl)cc32)CC1 [Prochlorperazine maleate]	1.03 ± 0.11
C=C1/C(=C\C=C2/CCC[C@]3(C)[C@@H]([C@H](C)CCCC(C)(C)O)CC[C@@H]23)C[C@@H](O)C[C@@H]1O [Calcitriol]	1.26 ± 0.13
C#C[C@]1(O)CC[C@H]2[C@@H]3CCc4cc(OC)ccc4[C@H]3CC[C@@]21C [Mestranol]	1.18 ± 0.18
Nc1ccn([C@@H]2O[C@H](CO)[C@@H](O)[C@@H]2O)c(=O)n1 [Cytarabine]	1.14 ± 0.13
COc1cccc2c1C(=O)c1c(O)c3c(c(O)c1C2=O)C[C@@](O)(C(C)=O)C[C@@H]3O[C@H]1C[C@H](N)[C@H](O)[C@H](C)O1 [Daunorubicin hydrochloride]	0.781 ± 0.054
CC/C(=C(\c1ccccc1)c1ccc(OCCN(C)C)cc1)c1ccccc1 [Tamoxifen]	1.25 ± 0.084
COc1ccc(CN2CCN(C(c3ccc(F)cc3)c3ccc(F)cc3)CC2)c(OC)c1OC [Lomerizine dihydrochloride]	1.1 ± 0.11
CC(C)NCC(O)COc1cccc2ccccc12 (stereo unspecified) [Propranolol hydrochloride]	1.56 ± 0.089
CN[C@@H]1[C@H](O)[C@H](NC)[C@H]2O[C@@]3(O)C(=O)C[C@@H](C)O[C@H]3O[C@@H]2[C@H]1O [Spectinomycin]	1.27 ± 0.069
C=C[C@H]1CN2CC[C@H]1C[C@@H]2[C@@H](O)c1ccnc2ccc(OC)cc12 [Quinidine]	1.16 ± 0.091

Already shown: an excerpt of the list.
SMILES	Hoechst total cell count ratio
Clc1ccc(CO/N=C(\Cn2ccnc2)c2ccc(Cl)cc2Cl)c(Cl)c1 [Oxiconazole nitrate]	1.19 ± 0.17
CN1CCN(CCCN2c3ccccc3Sc3ccc(Cl)cc32)CC1 [Prochlorperazine maleate]	1.03 ± 0.11
